Results reported in PubChem BioAssay AID2685 (National Center for Advancing Translational Sciences (NCATS), 2010).
Out of some 320,000 compounds screened, about 2,100 (0.66%) were called active. The inconclusive results got no clear call from the source; some entries with a clear call stand among them for comparison. Calls come from the whole dose curve; as a rule, active = well fitted inhibition curve with a large enough effect in the signal ratio, with a control signal flat (not every such curve was filed as active); inconclusive = small, poorly fitted or top-dose-only effect, or effect the other way, or a change in a side signal; inactive = flat fitted curve, though single readings scatter; the % refers to the signal ratio. Potencies of inconclusive entries are doubtful fits and often do not repeat.

Assay: qHTS Assay for Lipid Storage Modulators in Drosophila S3 Cells
Conditions: BODIPY lipid droplet fluorescence, 18-24 h, cells fed with added oleic acid; lipid storage change, negative = inhibition: at 46.1 µM (top of the series) unless noted
Method in brief: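 Drosophila S3 cells got compounds at several concentrations plus oleic acid (400 uM solution). Laser-scanning cytometry with 488 nm excitation read lipid droplets at 500-530 nm and cells at 575-640 nm. Percent activity was relative to 20 uM Triacsin C.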
% is set by controls: 0 for no effect and ±100 for the full control effect; potency is the fitted concentration of half-maximal effect.

| SMILES | lipid storage change, negative = inhibition | Potency |
| --- | --- | --- |
| Cc1ccc(S(=O)(=O)NC(C)C(c2cccs2)N2CCOCC2)cc1 (stereo unspecified) | inconclusive: 14.4% | – |
| O=C(c1cc(C2CC2)nc2ccc(Br)cc12)N1N=C(C(F)F)CC1(O)C(F)F (stereo unspecified) | – | inconclusive: 16.4 µM [cytotoxic, single point] |
| Cc1ccccc1C(C(=O)NC1CCCC1)N(C(=O)CNC(=O)c1ccco1)c1cccnc1 (stereo unspecified) | inconclusive: 18.5% [at 9.22 µM] | – |
| Cc1ccc(-n2nc3c(c2NC(=O)c2c(-c4ccccc4Cl)noc2C)CSC3)cc1 | inconclusive: -73.8% | – |
| COc1cccc(C(=O)Oc2ccccc2/C=C\C(=O)c2cc3ccccc3o2)c1 | – | inconclusive: 4.11 µM [falling, partial curve] |
| Cc1cc(NC(=O)COc2ccccc2)ccc1Cl | inconclusive: -16.5% | – |
| COCCNC(=O)Cn1c(=O)n(C)c2ccccc21 | – | inconclusive: 0.13 µM [falling, full curve, poor fit] |
| O=C(CCN1C(=O)/C(=C/c2cccs2)SC1=S)Nc1cccc(C(=O)O)c1 | – | active: 0.164 µM |
| CCn1nc(C)c(CN2CCC(n3nccc3NC(=O)c3ccc4c(c3)OCO4)CC2)c1C | inconclusive: 16.2% | – |
| CCOc1nc(C)nc(NC(=O)NS(=O)(=O)c2ccccc2Cl)n1 | inconclusive: -3.11% | – |
| O=c1c2ccccc2nc2n1C(CSCc1ccc(Cl)cc1Cl)CS2 (stereo unspecified) | – | inconclusive: 3.66 µM [activator, full curve, poor fit] |
| COc1ccc(C2NC(=O)N(C)C3=C2C(=O)CC(C)(C)C3)cc1OC (stereo unspecified) | inconclusive: 33.9% [activator] | – |
| CCOc1ccc(Cl)cc1/C=N/NC(=O)CNC(=O)c1ccccc1 | inconclusive: 25.1% | – |
| CCCN(CC(=O)Nc1ccccc1C)C(=O)c1oc2ccc(OCC)cc2c1C | – | inconclusive: 0.116 µM [rising, full curve, poor fit] |
| CCc1cccc(CC)c1NC(=O)C1CCN(C(=O)c2ccco2)CC1 | inconclusive: 131% | – |
| COc1ccc(NC(=O)COn2nnc3ccc(Cl)cc32)cc1OC | – | inconclusive: 29.1 µM [rising, single point] |
| O=C(NCCCN1CCOCC1)c1cn(-c2ccccc2)nc1-c1cccs1 | inconclusive: 19.8% | – |
| C/C(=N\NS(=O)(=O)c1ccc(Br)cc1)c1ccncc1 | – | inconclusive: 23.1 µM [activator, single point] |
| CCN(CC(=O)Nc1ccc(NC(C)=O)cc1)CC(=O)Nc1ccc(F)c(Cl)c1 | inconclusive: 20.4% | – |
| Cc1cc(NC(=O)c2cnn3c(C(F)F)cc(-c4ccccc4)nc23)no1 | inconclusive: 54.5% | – |
| CC(NC(=O)C1CCN(C(=O)c2cccs2)CC1)c1ccc(S(N)(=O)=O)cc1 (stereo unspecified) | inconclusive: 31.9% | – |
| COc1ccc(C(C(=O)NC(C)(C)C)N(C(=O)CCC(=O)Nc2cc(C)on2)c2cc(C)cc(C)c2)cc1 (stereo unspecified) | inconclusive: 68.5% | – |
| COC(=O)C1=C(N)Oc2cc(C)[nH]c(=O)c2C1c1ccccc1OC (stereo unspecified) | inconclusive: -6.35% | – |
| CCCc1cc(=O)[nH]c(SCC)n1 | – | inconclusive: 20.6 µM [falling, single point] |
| COCC(C)n1c(SC(C)C(=O)NC2CCCCC2C)nc2ccccc2c1=O (stereo unspecified) | – | inconclusive: 1.84 µM [activator, partial curve, poor fit] |
| CN(Cc1ccc(F)cc1)C(=O)CNC(=O)c1ccc2c(c1)OCO2 | inconclusive: -14% | – |

| SMILES | lipid storage change, negative = inhibition | Potency |
| --- | --- | --- |
| COC(=O)/C(=C/c1ccco1)NC(=O)c1ccccc1 | – | inconclusive: 0.58 µM [activator, full curve, poor fit] |
| O=C(Cc1ccc2c(c1)OCCO2)N1CCN(S(=O)(=O)c2cccs2)CC1 | inconclusive: 20% | – |
| COc1ccc(N=c2oc3c(OC)cccc3cc2C(=O)NCc2ccco2)c(OC)c1 | – | inconclusive: 29.1 µM [activator, single point] |
| CCN1CCCC1CNCc1cccc(OC)c1OCc1ccccc1F (stereo unspecified) | inconclusive: -4.82% | – |
| CCn1cnc2c(Nc3cc(F)cc(F)c3)nc(C#N)nc21 | – | active: 0.651 µM |
| COc1ccc(C2=NS(=O)(=O)N(C)C(C(=O)NC(C)c3ccccc3)=C2)cc1 (stereo unspecified) | inconclusive: -32.3% | – |
| CCC(C)(C)n1nnnc1CN(Cc1cccs1)Cc1cc2cc(OC)ccc2[nH]c1=O | inconclusive: 1.21% | – |
| CCC(=O)Nc1ccc(NC(=O)CSc2nnnn2C2CCCC2)cc1C | inconclusive: -42.5% | – |
| COc1ccccc1CNC(=O)c1cn(C)c(=O)c2cc(OC)c(OC)cc12 | inconclusive: 32.3% | – |
| Oc1oc(-c2ccccc2)nc1C=Nc1cccc2ccccc12 | inconclusive: 0.22% | – |
| O=C(CSc1nnc(COc2ccccc2)o1)Nc1ccc(F)cc1 | – | inconclusive: 29.1 µM [falling, single point] |
| COc1cc(OC)cc(C(=O)NC(C(=O)NNC(=O)c2ccc(C)cc2)C(C)C)c1 (stereo unspecified) | – | inconclusive: 32.6 µM [activator, single point] |
| O=S(=O)(CCc1ccccc1)N1CCOCC1 | – | active: 5.8 µM |
| CC(=O)NCCCOc1ccc([N+](=O)[O-])cc1Cl | inconclusive: 18.6% | – |
| Cc1cc(N)nc2nc(C(F)(F)F)nn12 | – | inconclusive: 0.731 µM [activator, single point] |
| COC(=O)c1cc(NC(=O)COC(=O)CCc2c[nH]c3ccccc23)cc(C(=O)OC)c1 | inconclusive | – |
| CC(=O)c1ccc(N2CCN(CC(O)c3ccccc3)CC2)cc1 (stereo unspecified) | inconclusive: -116% | – |
| CN1/C(=C\C(=O)C(F)F)C(C)(C)c2ccccc21 | inactive | – |
| O=C1C(c2ccccc2)NC(=S)N1C1CCCCC1 (stereo unspecified) | – | inconclusive: 29.1 µM [activator, partial curve, poor fit] |
| Nc1cc(-c2ccc(Cl)cc2)nn1-c1ccccc1 | inconclusive: -4.06% | – |
| CC(=O)N1CCc2cc(Br)cc(S(=O)(=O)N3CCN(c4ccccn4)CC3)c21 | – | inconclusive: 1.46 µM [rising, single point] |
| COc1ccc(NC(=O)Cn2cccc2)c(OC)c1 | inconclusive: 30.8% | – |
| CC(=O)Nc1ccc(S(=O)(=O)NCCC(=O)NNC(=O)c2ccncc2)cc1 | – | inconclusive: 4.11 µM [activator, single point] |
| NS(=O)(=O)c1ccc(N=Nc2c(O)[nH]c3ccc(Br)cc23)cc1 | inconclusive: -24.1% | – |
| CCC(=O)NC(c1ccc(C)cc1)c1ccc2cccnc2c1O (stereo unspecified) | inconclusive: -27.7% | – |
| CCCCOc1ccc(S(=O)(=O)N2CCN(c3ccc(N4CCN(CC)CC4)nn3)CC2)cc1 | inconclusive: -10.3% | – |

| SMILES | lipid storage change, negative = inhibition | Potency |
| --- | --- | --- |
| CCCC(=O)Nc1c(C)nn(C(=O)CCC)c1C | inconclusive: -97.4% | – |
| COc1ccc(C(=O)N=C2SC3CS(=O)(=O)CC3N2Cc2ccc(OC)c(OC)c2)cc1 (stereo unspecified) | – | inconclusive: 8.2 µM [activator, partial curve] |
| COc1ccc(-n2ccn3c(CCC(=O)N4CCN(c5cccc(C)c5C)CC4)nnc3c2=O)cc1 | – | inconclusive: 6.51 µM [activator, single point] |
| C=CCn1c(-c2cccs2)nc2nc3ccccc3nc21 | – | inconclusive: 1.46 µM [activator, partial curve] |
| COC(=O)c1ccc(C2CC(=O)Nc3cc(OC)c(OC)c(OC)c32)cc1 (stereo unspecified) | – | inconclusive: 7.31 µM [falling, partial curve, poor fit] |
| CSCCCN1CCCC(CO)(Cc2ccccc2F)C1 (stereo unspecified) | – | inconclusive: 0.291 µM [activator, partial curve, poor fit] |
| NS(=O)(=O)c1ccc(CCNCC#Cc2ccccc2)cc1 | inconclusive: 47.9% | – |
| CC(=O)Nc1ccc(/C=C/c2ccc3cccc([N+](=O)[O-])c3n2)cc1 | – | inconclusive: 29.1 µM [falling, single point] |
| CN(C)CCCN(C(=O)c1ccc2c(c1)OCCO2)c1nc2cc3c(cc2s1)OCO3 | inconclusive: 40.2% | – |
| O=C(c1ccc2[nH]c(=O)c(=O)[nH]c2c1)N1CCc2ccccc21 | inconclusive: 4.1% | – |
| Cc1ccccc1OCC(=O)Nc1ccc2c(c1)OCO2 | – | inconclusive: 5.8 µM [falling, partial curve] |
| O=C(CCN1C(=O)c2ccccc2C1=O)NC(=S)Nc1cccc(Cl)c1 | inconclusive: -7.99% | – |
| CN1CCN(c2ccc(NC(=O)c3ccc(-c4ccc(Br)cc4)o3)cc2)CC1 | inconclusive: -3.49% | – |
| CCCCCn1cnc2c(sc3nc4c(cc32)CSC(C)(C)C4)c1=O | – | inconclusive: 0.731 µM [activator, partial curve, poor fit] |
| Cc1ccc(-n2ncc3c2CC(C)(C)CC3NC(=O)CCc2cnn(C)c2)cc1 (stereo unspecified) | inconclusive: 20.8% | – |
| CO/N=C(\N)c1nonc1N | inconclusive: 23.4% | – |
| COc1ccc(Cl)cc1NC(=O)C/C(C)=N/NC(=O)c1ccccc1Cl | inconclusive: 59.1% | – |
| Cc1ccc(S(=O)(=O)Nc2nc(CN3CCOCC3)nc3sc(C)c(C)c23)cc1 | inconclusive: -9.15% | – |
| COc1cccc(/C=C2/C(=O)NN(c3ccc(F)cc3)C2=O)c1 | inactive | – |
| O=C(Cc1ccc(F)cc1)N1CCN(c2ccc([N+](=O)[O-])cc2)CC1 | inactive | – |
| O=C(CSc1nc2cc(Cl)ccc2o1)NCCc1ccccc1 | – | inconclusive: 23.1 µM [falling, single point] |
| CCCCCC(=O)Nc1cccc(S(=O)(=O)NC2=NCCC2)c1 | inconclusive: 16.5% | – |
| CCOC(=O)N1CCN(c2cc(=O)n(C3CCCCC3)c(=O)[nH]2)CC1 | inconclusive: 24.3% | – |
| Cc1noc(C)c1COC(=O)C1CCN(C(=O)c2ccc(Cl)cc2)CC1 | inconclusive: -0.144% | – |

Taken from above.
For Potency, `CCCCCn1cnc2c(sc3nc4c(cc32)CSC(C)(C)C4)c1=O` is listed with inconclusive: 0.731 µM [activator, partial curve, poor fit]
For Potency, `Cc1ccccc1OCC(=O)Nc1ccc2c(c1)OCO2` is listed with inconclusive: 5.8 µM [falling, partial curve]
For lipid storage change, negative = inhibition, `CN(C)CCCN(C(=O)c1ccc2c(c1)OCCO2)c1nc2cc3c(cc2s1)OCO3` is listed with inconclusive: 40.2%
